According to publication PMC10891067 (Nature Communications, 2024):

Experiment: general procedure: Fmoc solid-phase peptide synthesis; Fmoc-Rink Amide-MBHA Resin, loading 0.355 mmol/g; HATU/HOBt (1:1, 4 equiv.)
Settings: whole synthesis, total yield

Substance | isolated yield
Fmoc N IHVT IP-E-DL ADW I-K-K NH2 | 6.8 % total yield
PEPTIDE1{[FITC].[Acp].E.A.E.A.E.A.E.A.E.A.E.A.E.A.E.A.E.A.E.A.E.A.E.A.E.A.E.A.E.A.[am]}$$$$V2.0 | 7.2% total yield
PEPTIDE1{[Fmoc].[Acp].D.G.R.G.S.L.E.G.R.G.H.K.D.G.[am]}$$$$V2.0 | total yield 7.9%
PEPTIDE1{[Fmoc].[Acp].E.A.E.A.E.A.E.A.E.A.E.A.E.A.E.A.E.A.E.A.E.A.E.A.E.A.E.A.E.A.[am]}$$$$V2.0 | 8.9% total yield
PEPTIDE1{[Fmoc].[Acp].S.G.Q.Y.A.S.Y.H.C.W.C.W.R.D.P.G.R.S.G.G.S.K.[am]}$$$$V2.0 | total yield 7.8%
PEPTIDE1{[Nap].F.F.[Acp].E.A.E.A.E.A.E.A.E.A.E.A.E.A.E.A.E.A.E.A.E.A.E.A.E.A.E.A.E.A.[am]}$$$$V2.0 | total yield 7.1%

HELM strings list residues between dots; [ac] is acetyl, [am] amide, other brackets name non-standard units.
